Consider two substances from US20140045771 (published 2014).

The data set in a line: general procedure: solution-phase peptide synthesis; DCC. The note with it: late stage modification step, Hydrochloride.

The substance “[1-(2-{[1-(2-amino-3-methylbutanoyl)cyclopentyl]carbonylamino}-3-methylbytanoyl)pyrrolidin-2-yl]-N-{3-oxo-3-[3-(trifluoromethyl)(1,2,4-triazolo[4,3-a]pyrazin-7-yl)]-1-[(2,4,5-trifluorophenyl) methyl]propyl}carboxamide Hydrochloride” showed a step yield of 95%.

“[1-(2-{[1-(2-amino-3-methylbutanoyl)cyclopentyl]carbonylamino}-3-methylbutanoyl)pyrrolidin-2-yl]-N-{3-oxo-3-[3-(trifluoromethyl)(1,2,4-triazolo[4,3-a]pyrazin-7-yl)]-1-[(2,4,5-trifluorophenyl)methyl]propyl}carboxamide” registered a step yield of 97%.
